The target of this assay is T1, FLAG-BirA*-IBTK (inhibitor of Bruton's tyrosine kinase) (UniProt Q9P2D0).
T1 sequence: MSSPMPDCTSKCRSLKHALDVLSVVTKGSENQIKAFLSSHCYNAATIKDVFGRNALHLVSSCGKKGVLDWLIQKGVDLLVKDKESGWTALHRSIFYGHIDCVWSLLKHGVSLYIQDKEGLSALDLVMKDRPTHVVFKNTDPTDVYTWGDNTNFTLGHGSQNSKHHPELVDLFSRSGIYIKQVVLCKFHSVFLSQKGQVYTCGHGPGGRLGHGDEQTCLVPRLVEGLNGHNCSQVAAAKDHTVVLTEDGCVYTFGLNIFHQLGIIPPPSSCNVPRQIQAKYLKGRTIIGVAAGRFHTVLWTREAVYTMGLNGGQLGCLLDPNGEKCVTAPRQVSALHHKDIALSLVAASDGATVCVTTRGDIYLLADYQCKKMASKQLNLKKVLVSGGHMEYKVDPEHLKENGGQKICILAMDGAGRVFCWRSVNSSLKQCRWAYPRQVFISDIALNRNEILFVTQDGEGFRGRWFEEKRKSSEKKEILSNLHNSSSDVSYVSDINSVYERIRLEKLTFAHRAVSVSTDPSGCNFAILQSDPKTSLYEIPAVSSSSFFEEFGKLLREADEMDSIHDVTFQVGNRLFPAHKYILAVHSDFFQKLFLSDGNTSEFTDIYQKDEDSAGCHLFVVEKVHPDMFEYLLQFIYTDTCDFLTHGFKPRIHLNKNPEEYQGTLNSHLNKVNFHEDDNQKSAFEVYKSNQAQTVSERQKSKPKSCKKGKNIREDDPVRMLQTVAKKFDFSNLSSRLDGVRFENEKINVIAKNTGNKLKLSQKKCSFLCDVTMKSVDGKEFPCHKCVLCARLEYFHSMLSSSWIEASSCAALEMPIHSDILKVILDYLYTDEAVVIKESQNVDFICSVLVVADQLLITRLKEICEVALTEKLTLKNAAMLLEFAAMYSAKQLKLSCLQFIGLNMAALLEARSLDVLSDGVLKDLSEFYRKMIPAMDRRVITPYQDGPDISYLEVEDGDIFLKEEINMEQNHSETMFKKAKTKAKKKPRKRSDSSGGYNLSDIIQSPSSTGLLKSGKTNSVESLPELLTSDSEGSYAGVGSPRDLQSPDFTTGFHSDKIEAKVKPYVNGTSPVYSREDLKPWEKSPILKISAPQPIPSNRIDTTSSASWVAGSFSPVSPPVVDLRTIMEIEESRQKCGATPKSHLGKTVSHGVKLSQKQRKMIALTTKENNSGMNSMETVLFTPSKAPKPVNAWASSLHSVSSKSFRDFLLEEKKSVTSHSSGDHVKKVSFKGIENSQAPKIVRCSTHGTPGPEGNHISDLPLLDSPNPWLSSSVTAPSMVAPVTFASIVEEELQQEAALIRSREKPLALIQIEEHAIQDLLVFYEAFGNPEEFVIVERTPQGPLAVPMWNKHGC
The experiment in a line: co-IP; FLAG-BirA*-IBTK Tet-on Flp-In T-REx 293 cells with/without DOX (10 ng/ml, 12 hr); anti-FLAG co-IP, Western blot of endogenous proteins (Figure 1G). On the technique in general: Immunoblotting shows a protein as a band on a membrane.

No constants are given. Whether binding was seen depends on the method and setting. In cells and extracts the contact can be indirect. Where a sequence is shown, tags or fusion partners need not be part of it.

As to “eIF4G, endogenous (human (endogenous in Flp-In T-REx 293))”, the binding entry is “no binding”.

Values taken from paper PMC11090508.
